# Test results taken from the supplement of paper PMC3334620.
# The full ranking holds about 33,000 sequences; the median of “E-score (-0.5 to 0.5)” is about -0.016, and the highest 2% start at about 0.3. The list shows a part of the results.
# Target: T1, Yer184c (UniProt P39961)
# T1 sequence: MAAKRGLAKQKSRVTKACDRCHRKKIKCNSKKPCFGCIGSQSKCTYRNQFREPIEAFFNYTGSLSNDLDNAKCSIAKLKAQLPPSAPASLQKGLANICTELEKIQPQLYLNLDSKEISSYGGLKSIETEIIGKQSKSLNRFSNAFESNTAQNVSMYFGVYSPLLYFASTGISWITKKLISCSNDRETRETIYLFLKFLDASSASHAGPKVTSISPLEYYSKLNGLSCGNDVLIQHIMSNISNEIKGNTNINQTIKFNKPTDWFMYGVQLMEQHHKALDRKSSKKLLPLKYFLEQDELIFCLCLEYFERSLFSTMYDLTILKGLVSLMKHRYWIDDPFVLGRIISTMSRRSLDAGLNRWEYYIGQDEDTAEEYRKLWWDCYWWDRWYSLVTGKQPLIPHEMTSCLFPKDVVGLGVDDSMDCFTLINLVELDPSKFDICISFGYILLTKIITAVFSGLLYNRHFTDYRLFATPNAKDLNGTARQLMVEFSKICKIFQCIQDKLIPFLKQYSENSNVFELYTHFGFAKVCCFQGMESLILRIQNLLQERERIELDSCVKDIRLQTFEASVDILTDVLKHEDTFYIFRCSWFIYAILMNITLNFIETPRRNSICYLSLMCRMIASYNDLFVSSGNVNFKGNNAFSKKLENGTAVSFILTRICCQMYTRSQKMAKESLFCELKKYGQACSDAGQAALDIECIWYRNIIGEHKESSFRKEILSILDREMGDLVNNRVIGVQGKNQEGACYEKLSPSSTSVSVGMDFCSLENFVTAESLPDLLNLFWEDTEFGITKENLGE
# Assay: PBM E-score (8-mer binding enrichment) (E-score (-0.5 to 0.5)); higher = stronger / more preferred TF binding
# Conditions: protein concentration: 100 nM; construct: GST-full length
# Experimental: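 Universal 'all 10-mer' protein binding microarrays (Agilent AMADID 015681) probed with GST-tagged S. cerevisiae TFs (full-length or DBD) made by in vitro transcription/translation (PURExpress), about 100-200 nM. Bound TF was detected with fluorescent anti-GST. Each ungapped 8-mer (which stands for itself and its reverse complement) is scored by the PBM enrichment score (E-score), a modified Wilcoxon-Mann-Whitney statistic from -0.5 to +0.5, computed with the Universal PBM Analysis Suite. Scale: above 0.35 generally sequence-specific binding.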
row,Sequence,PBM E-score
1,CGTCACTA,0.0543
2,AGCGGCAG,0.0641
3,CCAATCAG,-0.314
4,ACCTTTAG,-0.0186
5,CCGTGTTA,0.0681
6,ACTAAGGC,-0.0457
7,ATGTACTA,0.0128
8,GTAGCGGA,0.186
9,CGTCGGGA,0.098
10,CTGGTCGC,-0.0771
11,ATTGGCAA,0.0823
12,ATTTCCCG,0.328
13,ACGCGGAT,0.163
14,TAGAGGAA,0.0258
15,ATCACGCA,0.0621
16,AAAGCGCT,0.238
17,GGCTGAGA,0.0954
18,AAAAACAA,0.243
19,CGTCCTCA,-0.168
20,GACAACTC,0.0832
21,ACCCCCTC,-0.376
22,CCATGGTC,-0.223
23,ATGCAGAG,-0.127
24,ATGGCGAA,0.0458
25,CCCCCGGC,0.0145

row,Sequence,PBM E-score
1,ATATGGAG,0.0502
2,GATCCCGA,0.125
3,GTCCATCA,-0.00208
4,GTAAGGCA,-0.206
5,AGGTCCCG,0.104
6,CACGGCTG,-0.0869
7,GTACCGAA,0.227
8,CGCACCAA,-0.0563
9,ACGAATTC,0.113
10,GGGATCGA,-0.107
11,ACCGTACC,-0.158
12,CTGGGAGA,-0.185
13,CAGCCCCC,-0.341
14,AGCTGGGG,-0.201
15,CCGCTCAA,-0.0707
16,ATCAGCGC,0.144
17,GCCTCCGA,-0.0578
18,AGACACTG,-0.148
19,CTGCATCA,-0.108
20,AAAGGGGT,-0.251
21,CCTACTTC,-0.0325
22,AACAACGG,0.175
23,ATATACAC,0.0215
24,CTAAATAG,0.0848
25,GATCGGGA,0.00096

row,Sequence,PBM E-score
1,AGTCAATG,-0.217
2,AGGGGAAG,-0.327
3,CCTGTGTC,-0.191
4,CGTAGTAC,-0.0796
5,CAGGTGGC,-0.248
6,ATAGTTGC,0.0557
7,ACTTGAAT,0.103
8,ACCAGCCG,0.194
9,TACAGAAA,0.244
10,CGTAGTCA,-0.118
11,CGACCTCC,0.0181
12,CCAGTTCA,0.0266
13,GAGGATAC,-0.0622
14,CCTCAGTA,-0.0582
15,AATCATTA,-0.00277
16,CAAGACTC,-0.0566
17,CGGCACCC,0.048
18,CCGGTCAA,0.214
19,CATCGCGA,0.0727
20,GGAGGAAC,0.122
21,CGGTCAAA,0.222
22,ATAAGGCG,0.0307
23,AGCTCAAA,0.235
24,CGACGTGA,-0.0585
25,AGGCTTGA,-0.108

row,Sequence,PBM E-score
1,ATCTCAAG,0.0203
2,TTACGAAA,0.212
3,AAGCCATT,0.118
4,AACTATTG,0.0686
5,AGTAACCC,-0.13
6,CCCAAAGC,-0.161
7,CCTCTCCG,-0.0361
8,AGTGACAA,-0.091
9,AGTAGGCA,0.049
10,TCACGACA,0.0142
11,ACGACTCG,-0.0983
12,CTCGGGTC,0.195
13,AGGAGGCC,-0.311
14,GAATATAA,0.085
15,CGGTAATA,0.234
16,ATAGCTTC,-0.00863
17,GATACTAC,0.0958
18,ATCTGACA,0.0044
19,AGCTCTCG,-0.0555
20,CCATGTAG,-0.139
21,AATGCCCT,-0.213
22,AAGAAAGA,0.0749
23,CTAGAAAC,-0.0327
24,GGTGCCGA,0.266
25,ACGGTCGG,0.129

row,Sequence,PBM E-score
1,TGATCGCA,-0.0623
2,AGATGAGG,-0.245
3,AGGAGTGC,-0.0807
4,GAAACCTC,-0.0878
5,CGTATCTA,0.0415
6,CAGGTAAC,-0.0858
7,ACAGAAAC,0.156
8,CCCTCAAC,-0.195
9,CGATATCG,0.174
10,ATCCTGTG,-0.14
11,GATAGACA,-0.0833
12,CCAGTCGG,-0.0574
13,ATGGGCGG,-0.0343
14,AATAATTA,0.299
15,ATTAGTAC,-0.0973
16,AAGTATGG,-0.024
17,CTAAGATC,0.0575
18,CCCAATAG,-0.222
19,AGCGTTTC,-0.0391
20,GGTAGGTA,-0.127
21,GCGTCCGA,0.0443
22,CCACATTC,-0.187
23,GCAGATCC,-0.0395
24,AGGGGGCC,-0.305
25,CATTAGCA,-0.0101

row,Sequence,PBM E-score
1,TGACCTAA,0.0529
2,AGGTGACT,-0.0736
3,CTTTCCGC,0.187
4,ATTCCAAC,0.0142
5,GCCCGGCC,0.242
6,AAACATTC,-0.11
7,GGCGGATA,0.0758
8,CGTGCGTA,0.0195
9,GCCAACCA,-0.155
10,AGATTAGG,-0.068
11,AGCCGGAA,0.423
12,ACGTAGCA,-0.116
13,CGACGACC,-0.0427
14,AAGGTTAA,0.0692
15,CGCCTTCC,-0.121
16,AGCCTTTG,-0.231
17,AACGGAAT,0.365
18,ACAGCCGA,0.0776
19,CGAGCACA,0.205
20,GAATGTAA,0.137
21,CGCGCTAA,0.162
22,TAATAACA,0.108
23,GCCATGTA,-0.174
24,ACGATCCA,-0.0627
25,CAGTAATC,-0.193

# 6 records picked at random from the list so far:
row,Sequence,PBM E-score
17,GCCTCCGA,-0.0578
16,CAAGACTC,-0.0566
11,ATTGGCAA,0.0823
21,AATGCCCT,-0.213
23,CTAGAAAC,-0.0327
4,GTAAGGCA,-0.206

# Next entries:

row,Sequence,PBM E-score
1,AGACAAAG,0.0298
2,AACTTTAT,0.129
3,ATTTTACG,0.214
4,CGAATGAG,0.199
5,ACTGACAT,0.0267
6,CCTCTAAC,-0.0421
7,GGCTAAAA,0.00039
8,AGACGAGA,-0.0292
9,ATAGATCC,0.0533
10,GCAATGCC,-0.00979
11,CCACGTAA,-0.153
12,ACCGGATC,0.229
13,ATATTCAA,0.207
14,GGACAAGA,0.0367
15,CCTAAGAA,0.0491
16,GTCCCCCA,-0.319
17,CCACTCCG,0.0662
18,GTATTGGA,-0.0773
19,GATTGAGA,0.192
20,AAGGTTGG,-0.24
21,CTTAGTCA,-0.0786
22,AAGCTACG,-0.0572
